Paper PMC12088458

The chains behind the UniProt entries cited, without tags or fusion partners.
UniProt P51532: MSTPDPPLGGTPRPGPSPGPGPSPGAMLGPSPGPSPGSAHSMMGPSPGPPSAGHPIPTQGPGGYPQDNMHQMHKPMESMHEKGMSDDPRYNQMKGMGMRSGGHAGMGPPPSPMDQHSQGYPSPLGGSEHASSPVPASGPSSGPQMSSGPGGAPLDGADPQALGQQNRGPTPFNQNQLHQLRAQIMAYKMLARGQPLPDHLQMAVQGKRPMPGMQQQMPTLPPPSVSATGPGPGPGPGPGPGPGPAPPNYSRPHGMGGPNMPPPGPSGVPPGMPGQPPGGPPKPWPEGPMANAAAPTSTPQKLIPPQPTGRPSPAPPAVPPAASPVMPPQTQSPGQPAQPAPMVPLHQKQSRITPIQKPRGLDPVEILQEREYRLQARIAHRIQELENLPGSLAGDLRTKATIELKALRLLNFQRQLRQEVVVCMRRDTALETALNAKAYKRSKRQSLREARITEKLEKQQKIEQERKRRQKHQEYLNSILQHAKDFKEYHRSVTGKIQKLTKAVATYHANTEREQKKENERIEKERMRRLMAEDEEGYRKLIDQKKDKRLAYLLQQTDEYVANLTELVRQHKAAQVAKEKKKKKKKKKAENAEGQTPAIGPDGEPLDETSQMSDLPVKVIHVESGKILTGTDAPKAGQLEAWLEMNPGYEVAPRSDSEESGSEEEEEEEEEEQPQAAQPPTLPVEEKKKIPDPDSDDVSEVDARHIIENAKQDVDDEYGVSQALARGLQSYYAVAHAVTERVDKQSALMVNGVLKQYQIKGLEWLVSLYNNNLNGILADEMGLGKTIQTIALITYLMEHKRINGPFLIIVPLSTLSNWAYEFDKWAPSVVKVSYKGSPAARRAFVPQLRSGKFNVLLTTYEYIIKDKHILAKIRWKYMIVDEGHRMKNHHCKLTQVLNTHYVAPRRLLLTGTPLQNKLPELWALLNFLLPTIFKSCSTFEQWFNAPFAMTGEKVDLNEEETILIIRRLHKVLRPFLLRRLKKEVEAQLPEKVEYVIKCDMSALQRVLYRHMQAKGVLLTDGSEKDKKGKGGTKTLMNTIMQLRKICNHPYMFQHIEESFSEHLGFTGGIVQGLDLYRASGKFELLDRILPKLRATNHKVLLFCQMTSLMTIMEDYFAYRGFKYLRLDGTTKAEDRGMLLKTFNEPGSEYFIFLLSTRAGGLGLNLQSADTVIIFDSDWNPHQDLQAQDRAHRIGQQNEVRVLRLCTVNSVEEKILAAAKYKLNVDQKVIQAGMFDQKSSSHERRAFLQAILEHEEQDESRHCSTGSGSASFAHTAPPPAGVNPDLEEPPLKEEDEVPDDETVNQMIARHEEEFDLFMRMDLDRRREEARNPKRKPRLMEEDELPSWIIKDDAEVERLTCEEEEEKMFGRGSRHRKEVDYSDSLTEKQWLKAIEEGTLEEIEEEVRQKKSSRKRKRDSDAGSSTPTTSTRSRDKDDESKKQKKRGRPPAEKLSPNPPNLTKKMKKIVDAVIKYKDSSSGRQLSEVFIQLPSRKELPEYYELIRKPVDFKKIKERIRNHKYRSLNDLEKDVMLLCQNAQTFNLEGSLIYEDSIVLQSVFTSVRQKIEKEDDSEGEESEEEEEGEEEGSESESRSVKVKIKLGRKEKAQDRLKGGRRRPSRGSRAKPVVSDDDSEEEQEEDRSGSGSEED
UniProt O60264: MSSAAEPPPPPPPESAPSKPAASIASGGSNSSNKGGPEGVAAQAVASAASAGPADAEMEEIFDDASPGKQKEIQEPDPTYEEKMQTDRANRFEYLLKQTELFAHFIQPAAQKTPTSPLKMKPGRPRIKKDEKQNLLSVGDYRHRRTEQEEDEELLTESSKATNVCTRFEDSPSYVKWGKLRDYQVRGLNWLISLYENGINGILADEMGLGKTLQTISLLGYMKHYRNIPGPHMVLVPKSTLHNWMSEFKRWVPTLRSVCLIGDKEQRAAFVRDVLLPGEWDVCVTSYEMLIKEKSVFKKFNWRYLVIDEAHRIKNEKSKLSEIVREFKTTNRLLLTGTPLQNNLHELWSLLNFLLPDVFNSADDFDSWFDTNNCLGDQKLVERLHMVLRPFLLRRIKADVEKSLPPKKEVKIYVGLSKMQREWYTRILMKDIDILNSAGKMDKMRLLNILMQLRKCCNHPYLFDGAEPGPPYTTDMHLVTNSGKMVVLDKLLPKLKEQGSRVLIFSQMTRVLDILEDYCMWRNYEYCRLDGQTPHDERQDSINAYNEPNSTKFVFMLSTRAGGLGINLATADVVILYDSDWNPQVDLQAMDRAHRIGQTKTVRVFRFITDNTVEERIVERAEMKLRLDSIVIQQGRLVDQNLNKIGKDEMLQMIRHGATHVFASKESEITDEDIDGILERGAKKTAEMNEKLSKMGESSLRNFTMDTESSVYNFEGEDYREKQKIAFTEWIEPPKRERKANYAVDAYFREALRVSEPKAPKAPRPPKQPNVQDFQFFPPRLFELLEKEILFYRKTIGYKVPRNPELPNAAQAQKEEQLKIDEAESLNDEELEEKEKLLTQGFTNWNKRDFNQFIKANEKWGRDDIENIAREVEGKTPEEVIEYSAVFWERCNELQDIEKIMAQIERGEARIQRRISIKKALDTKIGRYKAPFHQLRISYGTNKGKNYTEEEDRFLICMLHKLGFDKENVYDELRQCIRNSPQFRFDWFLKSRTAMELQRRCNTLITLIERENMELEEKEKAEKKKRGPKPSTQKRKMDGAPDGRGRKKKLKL
UniProt O00571: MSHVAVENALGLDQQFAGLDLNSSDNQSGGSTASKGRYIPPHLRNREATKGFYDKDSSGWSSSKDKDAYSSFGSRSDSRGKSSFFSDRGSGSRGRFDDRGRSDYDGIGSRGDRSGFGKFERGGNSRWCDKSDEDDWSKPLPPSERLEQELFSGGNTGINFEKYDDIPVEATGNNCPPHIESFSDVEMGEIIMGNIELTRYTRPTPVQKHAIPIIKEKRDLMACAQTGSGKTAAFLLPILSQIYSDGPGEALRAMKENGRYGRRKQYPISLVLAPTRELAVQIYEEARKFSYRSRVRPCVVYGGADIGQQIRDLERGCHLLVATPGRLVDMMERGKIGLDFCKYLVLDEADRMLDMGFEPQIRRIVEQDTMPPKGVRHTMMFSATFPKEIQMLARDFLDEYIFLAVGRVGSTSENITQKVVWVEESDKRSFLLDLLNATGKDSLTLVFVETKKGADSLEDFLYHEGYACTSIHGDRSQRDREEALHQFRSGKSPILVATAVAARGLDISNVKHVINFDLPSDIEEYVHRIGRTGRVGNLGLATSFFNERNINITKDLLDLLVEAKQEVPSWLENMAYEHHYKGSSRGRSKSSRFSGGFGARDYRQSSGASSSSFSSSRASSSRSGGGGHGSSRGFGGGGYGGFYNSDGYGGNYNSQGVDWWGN
UniProt P35222: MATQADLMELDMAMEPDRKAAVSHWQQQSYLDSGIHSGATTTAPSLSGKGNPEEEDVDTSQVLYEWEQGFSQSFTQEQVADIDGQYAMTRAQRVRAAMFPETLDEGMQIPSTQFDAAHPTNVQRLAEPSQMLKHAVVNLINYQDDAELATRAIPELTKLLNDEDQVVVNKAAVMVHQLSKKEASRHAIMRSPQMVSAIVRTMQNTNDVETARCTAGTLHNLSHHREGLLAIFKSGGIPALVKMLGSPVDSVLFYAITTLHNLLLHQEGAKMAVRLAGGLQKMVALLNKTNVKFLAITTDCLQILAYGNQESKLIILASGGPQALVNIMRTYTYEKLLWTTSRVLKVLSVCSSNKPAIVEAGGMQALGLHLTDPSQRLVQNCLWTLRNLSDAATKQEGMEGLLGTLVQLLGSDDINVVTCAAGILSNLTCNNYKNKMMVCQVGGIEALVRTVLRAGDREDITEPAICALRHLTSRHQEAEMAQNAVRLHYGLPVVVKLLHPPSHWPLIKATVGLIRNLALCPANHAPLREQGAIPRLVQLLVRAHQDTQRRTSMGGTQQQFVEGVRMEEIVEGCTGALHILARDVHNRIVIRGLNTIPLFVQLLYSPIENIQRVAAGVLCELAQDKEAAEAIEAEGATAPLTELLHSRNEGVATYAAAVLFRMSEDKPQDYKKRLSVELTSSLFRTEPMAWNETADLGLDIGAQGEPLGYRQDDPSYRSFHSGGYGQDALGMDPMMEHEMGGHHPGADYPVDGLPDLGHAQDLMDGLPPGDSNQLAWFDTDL

Legend:
TBX3-WT-BirA [1] = target: T1, TBX3-WT-BirA (UniProt O15119); assay: proximity labelling; BioID: TBX3 (wild type or deletion mutant) fused to BirA expressed in HEK293T cells cultured in 10 µM CHIR99021 (WNT-ON; also done in 10 nM LGK974, WNT-OFF); biotinylated nuclear extracts, streptavidin pulldown, mass spectrometry; against EV-BirA control; SAINT score > 0.6, BFDR < 0.05; n = 3
T1 sequence: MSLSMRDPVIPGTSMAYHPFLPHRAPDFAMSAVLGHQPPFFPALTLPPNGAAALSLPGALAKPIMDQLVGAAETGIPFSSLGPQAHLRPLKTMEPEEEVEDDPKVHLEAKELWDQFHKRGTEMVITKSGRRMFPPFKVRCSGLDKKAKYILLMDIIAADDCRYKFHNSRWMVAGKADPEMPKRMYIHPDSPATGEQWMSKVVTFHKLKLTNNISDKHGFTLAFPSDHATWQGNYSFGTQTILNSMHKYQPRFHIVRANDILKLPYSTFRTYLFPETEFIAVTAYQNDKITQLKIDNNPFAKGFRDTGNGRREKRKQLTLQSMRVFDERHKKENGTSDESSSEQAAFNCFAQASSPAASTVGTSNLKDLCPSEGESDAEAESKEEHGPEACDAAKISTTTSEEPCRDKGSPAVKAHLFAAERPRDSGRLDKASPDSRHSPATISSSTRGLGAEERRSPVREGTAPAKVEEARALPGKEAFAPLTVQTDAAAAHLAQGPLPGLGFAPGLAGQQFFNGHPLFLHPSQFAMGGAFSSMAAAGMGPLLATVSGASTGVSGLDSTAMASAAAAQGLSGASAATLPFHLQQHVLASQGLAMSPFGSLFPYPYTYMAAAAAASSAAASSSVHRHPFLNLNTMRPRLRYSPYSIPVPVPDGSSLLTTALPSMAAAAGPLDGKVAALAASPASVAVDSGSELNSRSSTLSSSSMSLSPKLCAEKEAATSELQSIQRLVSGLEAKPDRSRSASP

TBX3-∆NPF-BirA = TBX3-∆NPF-BirA (UniProt O15119); assay: as above
TBX3-∆RRM-BirA = TBX3-∆RRM-BirA (UniProt O15119); assay: as above
TBX3-WT-BirA [2] = target: T1, TBX3-WT-BirA; assay: proximity labelling; BioID as a1, cells cultured in 10 nM LGK974 (WNT-OFF, endogenous WNT secretion inhibited); biotinylated nuclear extracts, streptavidin pulldown, mass spectrometry; against EV-BirA control; n = 3

Substance	binding (TBX3-WT-BirA [1])	binding (TBX3-∆NPF-BirA)	binding (TBX3-∆RRM-BirA)	binding (TBX3-WT-BirA [2])
SMARCA4 (from UniProt P51532 1-1647)	binds	binds	binds	
SMARCA5 (from UniProt O60264 1-1052)	binds			
DDX3X (from UniProt O00571 1-662)	binds	no binding	no binding	
β-catenin (from UniProt P35222 1-781)	binds	no binding	no binding	no binding (only WNT-OFF (10 nM LGK974))
TRRAP (from UniProt Q9Y4A5 1-3859)	binds	no binding	no binding	

Results are given in words; binding and its absence hold for the method and conditions named. Binding seen in cells or lysates may run through a third protein. A yes stands for co-enrichment or nearness to the bait. Other partners may have been found. For some assays here: No binding means not detected with the bait.
